In PMC7977445:
These are yes or no findings as the source states them, for the method shown. In cells and extracts the contact can be indirect. Some binding calls cover weakened binding; strength is not graded here.

Chains of the proteins cited; added tags and fusions are not shown.
UniProt Q15910: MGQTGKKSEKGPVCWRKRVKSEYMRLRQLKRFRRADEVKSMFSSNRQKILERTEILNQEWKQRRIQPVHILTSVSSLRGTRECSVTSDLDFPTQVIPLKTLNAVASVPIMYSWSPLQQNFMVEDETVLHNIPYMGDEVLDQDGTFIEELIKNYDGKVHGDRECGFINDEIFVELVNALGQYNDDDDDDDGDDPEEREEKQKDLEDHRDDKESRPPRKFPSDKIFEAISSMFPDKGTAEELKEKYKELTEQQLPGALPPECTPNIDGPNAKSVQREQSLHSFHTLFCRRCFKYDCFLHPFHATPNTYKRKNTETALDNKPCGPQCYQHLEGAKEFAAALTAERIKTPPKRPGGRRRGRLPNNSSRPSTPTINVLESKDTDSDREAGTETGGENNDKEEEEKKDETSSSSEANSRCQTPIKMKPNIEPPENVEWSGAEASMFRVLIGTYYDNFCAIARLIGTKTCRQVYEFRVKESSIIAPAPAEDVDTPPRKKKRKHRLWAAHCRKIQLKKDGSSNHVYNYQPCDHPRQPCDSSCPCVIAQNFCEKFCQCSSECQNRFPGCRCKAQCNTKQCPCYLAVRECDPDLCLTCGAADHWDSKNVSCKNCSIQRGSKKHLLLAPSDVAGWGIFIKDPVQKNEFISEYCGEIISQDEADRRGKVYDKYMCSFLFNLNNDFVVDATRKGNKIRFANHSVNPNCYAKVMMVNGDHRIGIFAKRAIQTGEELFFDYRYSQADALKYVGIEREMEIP
UniProt P17844: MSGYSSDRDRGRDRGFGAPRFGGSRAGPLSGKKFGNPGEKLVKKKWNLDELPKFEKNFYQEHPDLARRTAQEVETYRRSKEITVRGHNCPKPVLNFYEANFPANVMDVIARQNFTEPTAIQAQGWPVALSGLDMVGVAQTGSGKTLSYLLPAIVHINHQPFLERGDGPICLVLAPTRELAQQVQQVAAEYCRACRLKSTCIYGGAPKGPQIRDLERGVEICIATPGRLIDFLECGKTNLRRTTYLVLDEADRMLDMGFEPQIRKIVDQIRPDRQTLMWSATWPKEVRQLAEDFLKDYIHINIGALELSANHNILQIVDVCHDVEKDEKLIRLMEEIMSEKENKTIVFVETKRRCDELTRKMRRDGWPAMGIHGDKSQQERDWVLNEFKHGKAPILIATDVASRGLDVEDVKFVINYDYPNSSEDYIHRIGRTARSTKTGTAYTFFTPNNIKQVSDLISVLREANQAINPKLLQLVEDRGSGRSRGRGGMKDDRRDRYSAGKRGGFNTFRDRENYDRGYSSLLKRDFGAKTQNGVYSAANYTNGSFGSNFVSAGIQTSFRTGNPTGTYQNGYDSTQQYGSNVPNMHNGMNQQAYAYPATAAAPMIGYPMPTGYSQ
UniProt Q15022: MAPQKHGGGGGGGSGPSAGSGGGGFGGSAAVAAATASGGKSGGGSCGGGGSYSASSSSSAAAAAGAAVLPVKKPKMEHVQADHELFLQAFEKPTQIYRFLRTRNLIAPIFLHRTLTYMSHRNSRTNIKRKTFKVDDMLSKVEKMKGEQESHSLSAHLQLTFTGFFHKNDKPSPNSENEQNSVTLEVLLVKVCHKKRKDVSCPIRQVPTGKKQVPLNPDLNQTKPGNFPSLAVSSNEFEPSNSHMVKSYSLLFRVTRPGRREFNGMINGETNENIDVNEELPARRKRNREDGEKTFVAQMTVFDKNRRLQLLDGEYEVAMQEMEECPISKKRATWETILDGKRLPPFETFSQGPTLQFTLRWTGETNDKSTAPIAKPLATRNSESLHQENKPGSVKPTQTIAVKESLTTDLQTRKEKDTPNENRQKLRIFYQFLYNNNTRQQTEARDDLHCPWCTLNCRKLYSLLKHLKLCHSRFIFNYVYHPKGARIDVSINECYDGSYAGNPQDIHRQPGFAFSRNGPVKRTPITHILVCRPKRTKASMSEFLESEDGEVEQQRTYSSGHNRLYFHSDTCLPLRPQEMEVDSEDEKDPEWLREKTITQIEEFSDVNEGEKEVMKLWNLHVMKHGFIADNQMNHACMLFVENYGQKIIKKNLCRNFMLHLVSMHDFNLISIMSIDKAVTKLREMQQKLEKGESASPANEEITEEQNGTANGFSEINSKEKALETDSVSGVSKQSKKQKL
UniProt O75530: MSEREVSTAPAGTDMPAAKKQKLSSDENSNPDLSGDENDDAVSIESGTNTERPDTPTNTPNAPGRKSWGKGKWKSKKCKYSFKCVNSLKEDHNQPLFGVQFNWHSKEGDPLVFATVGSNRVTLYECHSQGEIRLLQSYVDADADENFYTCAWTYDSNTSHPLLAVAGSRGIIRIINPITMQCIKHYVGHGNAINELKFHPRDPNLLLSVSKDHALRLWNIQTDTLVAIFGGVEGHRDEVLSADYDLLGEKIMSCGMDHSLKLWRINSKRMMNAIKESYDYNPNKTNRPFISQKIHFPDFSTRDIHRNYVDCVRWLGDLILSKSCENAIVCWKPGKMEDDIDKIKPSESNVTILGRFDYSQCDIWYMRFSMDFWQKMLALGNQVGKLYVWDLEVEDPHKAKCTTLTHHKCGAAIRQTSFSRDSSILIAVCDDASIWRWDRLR

What was measured:
[1] = molecular target: enhancer of zeste homologue 2 (EZH2) (human (endogenous in U87-MG)) (UniProt Q15910); assay: co-IP; as the co-IP with anti-EZH2 or anti-DDX5 antibody, with RNase treatment before the co-IP; immunoblotting with EZH2 or DDX5 antibodies
[2] = molecular target: enhancer of zeste homologue 2 (EZH2) (human (endogenous in U87-MG)) (UniProt Q15910); assay: co-IP; endogenous proteins in U87-MG lysate (Western and IP lysis buffer); 5 ug anti-EZH2, anti-SUZ12 or anti-DDX5 with protein-A/G agarose beads, 4 °C overnight, five washes with PBS; Western blotting; also after DDX5 or SUZ12 knockdown and after PRADX overexpression
[3] = molecular target: DEAD box protein 5 (DDX5) (human (endogenous in U87-MG)) (UniProt P17844); assay: as above

Substance | binding [1] | binding [2] | binding [3]
DEAD box protein 5 (DDX5) (from UniProt P17844 1-614) | binds | binds | –
suppressor of zeste 12 homolog (SUZ12) (from UniProt Q15022 1-739) | – | – | binds
embryonic ectoderm development protein (EED) (from UniProt O75530 1-441) | – | – | binds
